Test system: HeLa cells
Assay: Photostability under continuous confocal scanning of stained cells
Format: cell-based
Conditions: for fluorescence emission with increasing number of scans: HeLa cells, continuous excitation 488 nm (TPE-MitoR) or 560 nm (MitoTracker Red)

Which results are given for `CN1C(=CC=Cc2n(Cc3ccc(CCl)cc3)c3cc(Cl)c(Cl)cc3[n+]2Cc2ccc(CCl)cc2)C(C)(C)c2ccccc21.[Cl-]` [MT]?
signal intensity remaining (HeLa cells stained 50 nM 30 min, after 6 scans, 560 nm, 65 μW): less than 25%; fluorescence emission with increasing number of scans: completely quenched in less than ten scans

With `CC[N+]1=C(/C=C/c2ccc(-c3ccc(C(=C(c4ccccc4)c4ccccc4)c4ccccc4)cc3)cc2)C(C)(C)c2ccccc21` [TPE-MitoR, (E)-1-ethyl-3,3-dimethyl-2-(2-(4′(1,2,2-triphenylvinyl)-[1,1′-biphenyl]-4-yl)vinyl)-3H-indol-1-ium hexafluorophosphate] as the molecule, how does the “fluorescence emission with increasing number of scans” value read?
The value was “kept steady even after forty scans”.

With `[Br-].[Br-].c1ccc(C(=C(c2ccccc2)c2ccc(C[P+](c3ccccc3)(c3ccccc3)c3ccccc3)cc2)c2ccc(C[P+](c3ccccc3)(c3ccccc3)c3ccccc3)cc2)cc1` [TPE-TPP, Bis(Triphenylphosphonium) Tetraphenylethene] as the molecule, how does the fluorescence signal loss (HeLa cells stained 5 μM 1 h, 50 scans, total irradiation ~7 min, 405 nm, 65 μW) read?
The fluorescence signal loss was “less than 20%”.
